{"source": "PubChem BioAssay AID1688", "about": "(National Center for Advancing Translational Sciences (NCATS), 2009)", "note": "Out of some 220,000 compounds screened, about 2,400 (1.1%) were called active. The shares of active, inactive and inconclusive entries below differ from those in the screen. Calls follow the shape of the dose curve; as a rule, active = well fitted inhibition curve with a large enough effect; inconclusive = small, poorly fitted or top-dose-only effect, or effect the other way; inactive = no such curve, though single readings can be large or run the other way. Potencies beside an inconclusive call are fits to weak or partial responses and may not hold up. % is scaled to controls: 0 for no effect and ±100 for the full control effect; potency is read from the fitted curve at half-maximal effect."}
{"test": "qHTS Multiplex Assay to Identify Dual Action Probes in a Cell Model of Huntington: Aggregate Formation (GFP); also: nearly all actives have a fitted effect of over 60% in size", "conditions": "PC12 HttQ103-GFP aggregates, Acumen cytometry, 40 h; activity change, negative = inhibition: at 46.1 µM (top of the series) unless noted", "summary_of_the_method": "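Compounds (qHTS titration) were added to PC12 cells expressing an ecdysone-driven HTT exon 1 Q103–GFP fusion after induction with 100 nM tebufenozide. Aggregate formation was measured as GFP objects in cell lysates.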"}
{"smiles": "CC(=O)Nc1nonc1-c1nc2ccccc2n1Cc1ccccn1", "Potency": "inconclusive: 12.6 µM [activator, partial curve]"}
{"smiles": "O=C(CCCOc1ccccc1)Nc1cccc(C(=O)O)c1", "Potency": "inconclusive: 2.51 µM [inhibitor, partial curve, poor fit]"}
{"smiles": "ON=C1/C(=N\\O)CC2(C/C1=N/O)OCCO2", "Potency": "inconclusive: 1.26 µM [activator, full curve, poor fit]"}
{"smiles": "COc1cnc(SCc2ccc(Cl)cc2Cl)nc1Cl", "Potency": "inconclusive: 6.31 µM [activator, single point]"}
{"smiles": "Cc1ccc(NC2=C(Cl)C(=O)OC2OC(=O)c2ccccc2C)cc1", "note": "(stereo not given)", "Potency": "inconclusive: 15.8 µM [activator, single point]"}
{"smiles": "COc1ccc(C2=Nn3c(nnc3-c3ccc(OC)cc3)SC2)cc1", "Potency": "inconclusive: 0.199 µM [inhibitor, full curve]"}
{"smiles": "Cc1cc2ccccc2n1CCNC(=O)c1ccc(S(=O)(=O)N2CCOCC2)cc1", "Potency": "inconclusive: 0.501 µM [activator, partial curve]"}
{"smiles": "Cc1ccc(CNCc2cc3c(C(C)(C)C)nn(-c4ccccc4)c3[nH]c2=O)cc1", "Potency": "inconclusive: 17.8 µM [inhibitor, single point]"}
{"smiles": "CC(C)(C)n1nnnc1C(c1cccs1)N(Cc1ccccc1)Cc1cccnc1", "note": "(stereo not given)", "activity change, negative = inhibition": "inactive: -1.64%"}
{"smiles": "O=C(c1ccc(CS(=O)(=O)c2ccc(Br)cc2)o1)N1CCCCCC1", "Potency": "inconclusive: 15.8 µM [inhibitor, single point]"}
{"smiles": "N#C[C@H]1[C@H](c2ccccc2)[C@](C#N)(C(=O)c2ccccc2)[C@@H]2C=Cc3ccccc3N21", "activity change, negative = inhibition": "inactive: 21.4%"}
{"smiles": "Cc1ccccc1-n1ncc2c(SCC(=O)NCc3cccs3)ncnc21", "Potency": "inconclusive: 0.794 µM [activator, full curve, poor fit]"}
{"smiles": "O=C(COc1ccccc1-c1ccccc1)NNC(=O)NC1CCCCC1", "activity change, negative = inhibition": "inactive: -6.99%"}
{"smiles": "O=[N+]([O-])c1ccc(C=Nc2ccc(Cl)cc2Cl)s1", "Potency": "inconclusive: 35.5 µM [inhibitor, single point]"}
{"smiles": "O=C1/C(=C/c2ccc(C(=O)O)cc2)CCC/C1=C\\c1ccc(C(=O)O)cc1", "Potency": "inconclusive: 35.5 µM [activator, single point]"}
{"smiles": "CCC(=O)N1CCN(c2ccc(Cl)cc2NC(=O)c2ccc(N3CCCC3)c([N+](=O)[O-])c2)CC1", "Potency": "inconclusive: 3.55 µM [activator, single point]"}
{"smiles": "COc1ccccc1NC(=O)CN(c1ccc(C23CC4CC(CC(C4)C2)C3)cc1)S(C)(=O)=O", "Potency": "inconclusive: 20 µM [inhibitor, single point]"}
{"smiles": "CCOc1ccc(NC(=O)Cn2nnc(-c3ccccc3NC(=O)CC)n2)cc1", "activity change, negative = inhibition": "inactive: -3.03%"}
{"smiles": "CN(CC(=O)Nc1ccc(Cl)cc1)CC(=O)Nc1cc(Cl)ccc1C#N", "Potency": "inconclusive: 14.1 µM [inhibitor, single point]"}
{"smiles": "CC1=C(C(=O)Nc2ccccc2)C(c2ccc(C)o2)n2c(s/c(=C\\c3ccco3)c2=O)=N1", "note": "(stereo not given)", "Potency": "inconclusive: 35.5 µM [inhibitor, single point]"}
{"smiles": "FC(F)(F)c1cccc(Nc2ncnc3ccccc23)c1", "Potency": "inconclusive: 12.6 µM [inhibitor, partial curve]"}
{"smiles": "CC(C)c1nc(N2CCN(C(=O)c3ccccc3)CC2)c(C#N)c2c1COC(C)(C)C2", "Potency": "active: 14.1 µM"}
{"smiles": "Cc1ccc(NNC(=O)c2ccno2)c(C)c1", "activity change, negative = inhibition": "inactive: 10.1% [at 9.22 µM]"}
{"smiles": "O=C(COc1cccc2ccccc12)N1CCN(c2ccccc2)CC1", "Potency": "inconclusive: 22.4 µM [inhibitor, single point]"}
{"smiles": "CC1(C)CC(=O)CC2(C1)NCC(c1ccccc1)c1c2[nH]c2ccccc12", "note": "(stereo not given)", "Potency": "inconclusive: 15.8 µM [inhibitor, single point]"}
{"smiles": "COC(=O)c1ccc(O)cc1", "activity change, negative = inhibition": "inactive: 5.9%"}
{"smiles": "COc1c(-c2ccc(O)c(O)c2)oc2cc(O)cc(O)c2c1=O", "Potency": "inconclusive: 3.55 µM [activator, single point]"}
{"smiles": "O=C(Nc1ccc(Cl)cc1)Nc1ccc(N2CCCC2)c(S(=O)(=O)Nc2ccccc2Cl)c1", "Potency": "inconclusive: 35.5 µM [inhibitor, single point]"}
{"smiles": "COc1cc(/C=N/n2cnnc2)ccc1OCc1ccccc1", "Potency": "inconclusive: 7.08 µM [activator, partial curve]"}
{"smiles": "O=C(Cn1nnc(-c2ccccc2-n2cnnn2)n1)c1ccccc1", "activity change, negative = inhibition": "inactive: -4.91%"}
{"smiles": "CC(C)(C)OC(=O)COc1cc(O)c2c(=O)cc(-c3ccccc3)oc2c1", "activity change, negative = inhibition": "inactive: 6.26%"}
{"smiles": "CN(C)CCCNCCNC(=O)/C=N\\O", "Potency": "inconclusive: 0.316 µM [activator, partial curve]"}
{"smiles": "COc1cccc(C2CC(c3ccc(C)cc3)n3nc(N)nc3N2)c1", "note": "(stereo not given)", "Potency": "inconclusive: 3.16 µM [activator, single point]"}
{"smiles": "Cc1nc(CS(=O)(=O)c2ccccc2)cc(Sc2ccc(Cl)cc2)n1", "Potency": "inconclusive: 35.5 µM [activator, single point]"}
{"smiles": "O=C(Nc1cccc(S(=O)(=O)Nc2ccc(Cl)cc2)c1)c1ccc(Cl)nc1", "Potency": "inconclusive: 2.82 µM [inhibitor, full curve, poor fit]"}
{"smiles": "COCCCNC(=S)NNC(=O)c1ccoc1C", "Potency": "inconclusive: 5.62 µM [inhibitor, single point]"}
{"smiles": "COc1ccc(Cl)cc1NC(=O)CN1CCc2ccccc21", "activity change, negative = inhibition": "inactive: -19.8%"}
{"smiles": "Cc1cc(C)cc(C(=O)NC(=S)Nc2ccc3[nH]c(=O)[nH]c3c2)c1", "Potency": "inconclusive: 22.4 µM [activator, partial curve]"}
{"smiles": "Oc1c(CN2CCN(c3ccccn3)CC2)cc(Cl)c2cccnc12", "activity change, negative = inhibition": "inactive: -26%"}
{"smiles": "O=C(N1CCCCC1)N1CCN(c2ccc(Cl)cc2)CC1", "Potency": "inconclusive: 0.355 µM [activator, partial curve]"}
{"smiles": "CCOc1cc(CNC(=O)CN2C(=O)c3ccccc3S2(=O)=O)ccc1OC", "Potency": "inconclusive: 1.78 µM [inhibitor, partial curve]"}
{"smiles": "CC(Oc1cc(-c2ccccc2)cc2ccccc12)C(=O)N1CCOCC1", "note": "(stereo not given)", "Potency": "inconclusive: 28.2 µM [inhibitor, single point]"}
{"smiles": "N#CC1=C(N)Oc2n[nH]c(-c3cccs3)c2C1c1cccnc1", "note": "(stereo not given)", "Potency": "inconclusive: 0.562 µM [inhibitor, single point]"}
{"smiles": "COc1cc(C(=O)N/N=C/C2CC=CCC2)cc(OC)c1OC", "note": "(stereo not given)", "activity change, negative = inhibition": "inactive: -15.2%"}
{"smiles": "Nc1cc(S(=O)(=O)N2CCCCC2)ccc1Oc1ccccc1", "Potency": "inconclusive: 20 µM [inhibitor, partial curve, poor fit]"}
{"smiles": "O=C(CC1SC(=Nc2ccccc2)N(Cc2ccccn2)C1=O)Nc1cccc(Cl)c1", "note": "(stereo not given)", "Potency": "inconclusive: 35.5 µM [inhibitor, single point]"}
{"smiles": "O=C(Nc1nc(-c2cc(Cl)sc2Cl)cs1)c1ccc(Br)s1", "Potency": "inconclusive: 35.5 µM [inhibitor, partial curve, poor fit]"}
{"smiles": "CC1=C(C)CS(=O)N(S(=O)(=O)c2ccc(Cl)cc2)C1", "note": "(stereo not given)", "Potency": "inconclusive: 25.1 µM [inhibitor, single point]"}
{"smiles": "CCCCn1nnnc1NCc1cc(OC)c(OC)cc1OC", "Potency": "inconclusive: 14.1 µM [inhibitor, partial curve]"}
{"smiles": "CC(=C/c1ccco1)/C=N/NC(=O)Cc1cccn1C", "Potency": "inconclusive: 11.2 µM [activator, single point]"}
{"smiles": "CCOC(=O)CCCc1sc(N)nc1-c1[nH]c(=O)[nH]c1C", "activity change, negative = inhibition": "inactive: -21.3%"}
{"smiles": "CCCCCOC(=O)Cn1c(=O)oc2ccccc21", "activity change, negative = inhibition": "inactive: -4.91%"}
{"smiles": "COC(=O)CON1C(=O)c2ccccc2C1=O", "activity change, negative = inhibition": "inactive: -8.68%"}
{"smiles": "CC(=O)c1cc(NC(=O)c2ccc([N+](=O)[O-])cc2)c(=O)oc1C", "Potency": "inconclusive: 6.31 µM [activator, partial curve]"}
{"smiles": "CC(=O)Nc1c(C(=O)N2CCN(c3ccccn3)CC2)cnn1-c1ccc(C)cc1", "Potency": "inconclusive: 14.1 µM [inhibitor, single point]"}
{"smiles": "CN1/C(=N\\O)c2cccc3cccc1c23", "Potency": "inconclusive: 35.5 µM [inhibitor, single point]"}
{"smiles": "Cc1ccc(-n2c(SCC(=O)NCc3ccco3)nnc2-c2cccnc2)c(C)c1", "Potency": "inconclusive: 14.1 µM [inhibitor, single point]"}
{"smiles": "CSc1nc(=NC(C)=O)ss1", "activity change, negative = inhibition": "inactive: 23.5%"}
{"smiles": "COc1cc(OC)c(OC)cc1/C=N/NC(=O)c1cc(-c2cccn2C)n[nH]1", "activity change, negative = inhibition": "inactive: 8.19%"}
{"smiles": "O=C(C1CCN(S(=O)(=O)c2cccc3cccnc23)CC1)N1CCN(c2ccc(Cl)cc2)CC1", "Potency": "inconclusive: 20 µM [inhibitor, partial curve, poor fit]"}
{"smiles": "COc1ccccc1NS(=O)(=O)c1cccc(NC(=O)Nc2ccc(Cl)cc2)c1", "Potency": "inconclusive: 22.4 µM [inhibitor, single point]"}
{"smiles": "Cc1cccc(Cn2c(=O)c3c(nc4n3CCN4Cc3ccco3)n(C)c2=O)c1", "Potency": "inconclusive: 35.5 µM [inhibitor, partial curve]"}
{"smiles": "O=C(NCc1ccco1)C1CCN(c2nc3ccccc3n2Cc2ccccc2F)CC1", "Potency": "inconclusive: 35.5 µM [inhibitor, single point]"}
{"smiles": "O=C(Nc1ccc(Cl)cc1Cl)C1CCC(=O)N1Cc1ccccc1Cl", "note": "(stereo not given)", "Potency": "inconclusive: 14.1 µM [inhibitor, single point]"}
{"smiles": "CC[n+]1c(/C=C/Nc2ccccc2)sc2ccccc21", "Potency": "active: 11.2 µM"}
{"smiles": "COc1ccc(Cn2nnnc2C(c2cccs2)N2CCCCCC2)cc1", "note": "(stereo not given)", "Potency": "inconclusive: 35.5 µM [inhibitor, single point]"}
{"smiles": "COc1ccc(N2CCN(C(=O)c3ccc(C)cc3Cl)CC2)cc1", "activity change, negative = inhibition": "inactive: -14.6%"}
{"smiles": "O=C1c2ccccc2C(=O)c2c1oc(C(F)(F)F)c2C(=O)c1ccccc1", "Potency": "active: 5.01 µM"}
{"smiles": "COc1ccccc1NC(=O)C1=C(C)NC(=O)NC1c1ccccc1[N+](=O)[O-]", "note": "(stereo not given)", "activity change, negative = inhibition": "inactive: 5.49%"}
{"smiles": "O=C(CN1C(=O)c2cccc3cccc1c23)NCc1ccncc1", "Potency": "inconclusive: 1 µM [activator, full curve, poor fit]"}
